Results: patent US11040052B2, “Methods and pharmaceutical compositions for modulating autophagy in a subject in need thereof” (INSERM (INSTITUT NATIONAL DE LA SANTE ET DE LA RECHERCHE …, priority 2013, dated 2021)
“Also recorded” adds a separate entry of the source. For at least one compound, name, drawing or mass did not settle the structure.

How the values were obtained:
[1] = system: turnover of long-lived proteins; assay: Turnover of long-lived proteins; format: cell-based, human; conditions: starved cells
cellular ATP levels = assay: Cellular ATP levels; format: cell-based
AMPK, mTORC1 = assay: Immunoblot of AMPK phosphorylation and mTORC1 activity (p70s6k phosphorylation); format: cell-based, human; conditions: nutrient-depleted (starved) cells in vitro
Procedure: For immunoblotting, 25 μg of proteins were then separated on 4-12% Bis-Tris acrylamide (Invitrogen) or 12% Tris-Glycine SDS-PAGE precast gels (Biorad, Hercules, USA) and electrotransferred to ImmobilonTM membranes (Millipore Corporation, Billerica, USA). Membranes were then sliced in different parts according to the molecular weight of the protein of interest to allow simultaneous detection of different antigens within the same experiment. […] Development was performed with appropriate horseradish peroxidase (HRP)-labeled secondary antibodies (Southern Biotech, Birmingham, USA) plus the SuperSignal West Pico chemoluminescent substrate (Thermo Scientific-Pierce). An anti-glyceraldehyde-3-phosphate dehydrogenase antibody (Chemicon International, Temecula, USA) was used to control equal loading of lanes.

[2] = system: U2OS cells stably expressing GFP-LC3; assay: Autophagy in cultured cells: GFP-LC3 puncta formation and LC3 lipidation with or without bafilomycin A1; format: cell-based, human; conditions: nutrient-depleted (starved) cells in vitro
Procedure: U2OS, HeLa or H4 cells stably expressing GFP-LC3 were seeded in 96-well imaging plates (BD Falcon, Sparks, USA) 24 h before stimulation. Cells were treated with the indicated agents for 4 h. […] Images were analyzed for the presence of GFP-LC3 puncta in the cytoplasm by means of the BD Attovision software (BD Imaging Systems). Cell surfaces were segmented and divided into cytoplasmic and nuclear regions according to manufacturer standard proceedings. RB 2×2 and Marr-Hildreth algorithms were used to recognize cytoplasmic GFP-LC3 positive dots. Statistical analyses were implemented on the R software (http://www.r-project.org/). For quantitative analyses of protein acetylation, cell surfaces were segmented into cytoplasm and nuclei regions, and staining intensity of each individual cell was measured for statistical analysis.
Membranes were then sliced in different parts according to the molecular weight of the protein of interest to allow simultaneous detection of different antigens within the same experiment. […]
For immunoblotting, protein extracts obtained by cellular lysis via RIPA buffer were run on 4-12% Bis-Tris acrylamide (Invitrogen) and electrotransferred to […] PVDF membranes (Biorad, USA). […] Quantification was performed by densitometry by means of Image J software. […]

## O=C(O)C(Cl)Cl [DCA, dichloroacetate]
[1]
  starvation-induced turnover of long-lived proteins: suppression
Cellular ATP levels
  cellular ATP levels in starved cells: induced a decrease in cellular ATP; also recorded: but not in an increase of ATP levels
AMPK, mTORC1
  AMPK phosphorylation and mTORC1 activity in starved cells: reduction in AMPK phosphorylation and an increase in mTOR activity; also recorded: suppression
[2]
  starvation-induced autophagy (GFP-LC3 puncta, LC3 lipidation, autophagic flux): inhibition of starvation-induced autophagy; also recorded: suppression
